These results are taken from PMC11900566.

For assay [1], the target named is AtCTD-NLUC (Arabidopsis). Description: split reporter; Split-LUC imaging; CLUC and NLUC fusions co-infiltrated by Agrobacterium GV3101 into N. benthamiana leaves; 500 uM luciferin, dark for 5 min.
Assay [2] concerns the target His-AtCTD (Arabidopsis). Description: pull-down; His-AtCTD incubated with a GST fusion protein, pulled down using anti-His antibody and magnetic beads; GST fusions detected with anti-GST antibody.
Assay [3] deals with His-AtCTD (Arabidopsis). Description: pull-down; competition: His-AtCTD with a fixed concentration of GST-AtMTA and increasing concentrations of GST-AtSET (or 1x of each added); detected with anti-GST antibody.
Assay [4] deals with AtCTD-NLUC (Arabidopsis). Description: split reporter; Split-LUC competition in N. benthamiana leaves: MTA and CTD fusions co-infiltrated with varying amounts of SET or empty vector.
The target in assay [5] is AtCTD-NLUC (Arabidopsis). Description: split reporter; Split-LUC competition in N. benthamiana leaves: MTA and CTD fusions with increasing ALKBH10B.

No constants are given. Whether binding was seen depends on the method and setting. Binding seen in cells or lysates may run through a third protein. Binding can be weak; no strength is given. Sequences can lack the tags named with a protein.

B1: AtSET-CLUC (domain or fragment, UniProt Q9C5X4 898-1016)
chain: KRLAFGKSGIHGFGIFAKLPHRAGDMMIEYTGELVRPSIADKREQLIYNSMVGAGTYMFRIDDERVIDATRTGSIAHLINHSCVPNCYSRVITVNGDEHIIIFAKRHIPKWEELTYDYR
In the case of B1, the binding result in assay [1] is on record as “binds”.

B2: GST-AtSET (domain or fragment, UniProt Q9C5X4 898-1016)
chain: KRLAFGKSGIHGFGIFAKLPHRAGDMMIEYTGELVRPSIADKREQLIYNSMVGAGTYMFRIDDERVIDATRTGSIAHLINHSCVPNCYSRVITVNGDEHIIIFAKRHIPKWEELTYDYR
As for B2, the binding entry in assay [2] and in assay [3] was “binds” in each case.

B3: AtSET (third construct co-infiltrated as competitor in Split-LUC) (domain or fragment, UniProt Q9C5X4 898-1016)
chain: KRLAFGKSGIHGFGIFAKLPHRAGDMMIEYTGELVRPSIADKREQLIYNSMVGAGTYMFRIDDERVIDATRTGSIAHLINHSCVPNCYSRVITVNGDEHIIIFAKRHIPKWEELTYDYR
As for B3, in assay [4], the binding result was “binds”.

B4: GST-AtALKBH10B (enzyme, UniProt Q9ZT92 1-569)
chain: MTIAAAPARQTDRSATGFNPAYVTTAKAVSVPVQVPPATVVSEGLGKDALISWFRGEFAAANAIIDAMCSHLRIAEEAVSGSEYEAVFAAIHRRRLNWIPVLQMQKYHSIAEVAIELQKVAAKKAEDLKQKKTEEEAEEDLKEVVATEEEEVKKECFNGEKVTENDVNGDVEDVEDDSPTSDITDSGSHQDVHQTVVADTAHQIICHSHEDCDARSCEIKPIKGFQAKEQVKGHTVNVVKGLKLYEELLKEDEISKLLDFVAELREAGINGKLAGESFILFNKQIKGNKRELIQLGVPIFGHVKADENSNDTNNSVNIEPIPPLLESVIDHFVTWRLIPEYKRPNGCVINFFEEGEYSQPFLKPPHLEQPISTLVLSESTMAYGRILSSDNEGNFRGPLTLSLKQGSLLVMRGNSADMARHVMCPSQNKRVSITFFRIRPDTYHNHSQPNSPRNDGVMTMWQPYQMTPTPFLNGYDHSIDMMPKLGVLRPPMVMMAPPPVQPMILPSPNVMGTGGGTGVFLPWASVNSSRKHVKHLPPRAQKKRLLPLPPAASSSPAGGSTSEPVITVG
As to B4, the binding result in assay [2] is on record as “binds”.

B5: AtALKBH10B (Split-LUC fusion) (enzyme, UniProt Q9ZT92 1-569)
chain: MTIAAAPARQTDRSATGFNPAYVTTAKAVSVPVQVPPATVVSEGLGKDALISWFRGEFAAANAIIDAMCSHLRIAEEAVSGSEYEAVFAAIHRRRLNWIPVLQMQKYHSIAEVAIELQKVAAKKAEDLKQKKTEEEAEEDLKEVVATEEEEVKKECFNGEKVTENDVNGDVEDVEDDSPTSDITDSGSHQDVHQTVVADTAHQIICHSHEDCDARSCEIKPIKGFQAKEQVKGHTVNVVKGLKLYEELLKEDEISKLLDFVAELREAGINGKLAGESFILFNKQIKGNKRELIQLGVPIFGHVKADENSNDTNNSVNIEPIPPLLESVIDHFVTWRLIPEYKRPNGCVINFFEEGEYSQPFLKPPHLEQPISTLVLSESTMAYGRILSSDNEGNFRGPLTLSLKQGSLLVMRGNSADMARHVMCPSQNKRVSITFFRIRPDTYHNHSQPNSPRNDGVMTMWQPYQMTPTPFLNGYDHSIDMMPKLGVLRPPMVMMAPPPVQPMILPSPNVMGTGGGTGVFLPWASVNSSRKHVKHLPPRAQKKRLLPLPPAASSSPAGGSTSEPVITVG
As for B5, in assay [1], the binding result is on record as “binds”.

B6: AtALKBH10B (third construct co-infiltrated as competitor in Split-LUC) (enzyme, UniProt Q9ZT92 1-569)
chain: MTIAAAPARQTDRSATGFNPAYVTTAKAVSVPVQVPPATVVSEGLGKDALISWFRGEFAAANAIIDAMCSHLRIAEEAVSGSEYEAVFAAIHRRRLNWIPVLQMQKYHSIAEVAIELQKVAAKKAEDLKQKKTEEEAEEDLKEVVATEEEEVKKECFNGEKVTENDVNGDVEDVEDDSPTSDITDSGSHQDVHQTVVADTAHQIICHSHEDCDARSCEIKPIKGFQAKEQVKGHTVNVVKGLKLYEELLKEDEISKLLDFVAELREAGINGKLAGESFILFNKQIKGNKRELIQLGVPIFGHVKADENSNDTNNSVNIEPIPPLLESVIDHFVTWRLIPEYKRPNGCVINFFEEGEYSQPFLKPPHLEQPISTLVLSESTMAYGRILSSDNEGNFRGPLTLSLKQGSLLVMRGNSADMARHVMCPSQNKRVSITFFRIRPDTYHNHSQPNSPRNDGVMTMWQPYQMTPTPFLNGYDHSIDMMPKLGVLRPPMVMMAPPPVQPMILPSPNVMGTGGGTGVFLPWASVNSSRKHVKHLPPRAQKKRLLPLPPAASSSPAGGSTSEPVITVG
On to B6, for which the binding entry in assay [5] is “binds”.
